Record: PubChem BioAssay AID1259405 (NCATS, 2018)

Purpose: 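Mouse-designed siRNAs used to find CHO productivity engineering targets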 (primary screen)
System: Chinese hamster CHO-K1 ovary cells with stable secreted eGFP expression
Reagents: single siRNA against mouse genes, 0.8 pmol siRNA per well (2 µl of 400 nM stock)
Time to read-out: 3 days
Measurement: 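Percent of the per-plate non-targeting control median for intracellular GFP per well by laser scanning cytometry and for cell viability by ATP luminescence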
Scale: GFP, % of control: higher = more GFP per well, higher productivity; viability (ATP), % of control: higher = more viable cells (more ATP)
Active means: 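a knock-down is called active if GFP reaches 120% or more of non-targeting control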
The deposit covers about 50,000 reagents; this is an unselected part. Of all reagents, about 4,000 (8%) are marked active. 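Mouse siRNA library applied to hamster cells; one well for each siRNA.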 Reagents against one gene are numbered here.

gene knocked down	reagent	GFP, % of control	viability (ATP), % of control	call
Tenm4 (GeneID 23966)	1	47	41.3	inactive
Tenm4 (GeneID 23966)	2	79.9	69.7	inactive
Tenm4 (GeneID 23966)	3	45.3	49.7	inactive
Arpc3 (GeneID 56378)	1	58.4	69.1	inactive
Arpc3 (GeneID 56378)	2	84.9	91.5	inactive
Sh3gl1 (GeneID 20405)	1	127	63.1	active
Sh3gl1 (GeneID 20405)	2	56.8	45.5	inactive
Sh3gl1 (GeneID 20405)	3	76.9	83.4	inactive
Calb2 (GeneID 12308)	1	101	121	inactive
Calb2 (GeneID 12308)	2	83.9	71.4	inactive
Slc9a4 (GeneID 110895)	1	93.9	94.2	inactive
Slc9a4 (GeneID 110895)	2	31.8	89.3	inactive
Slc9a4 (GeneID 110895)	3	65.1	94.4	inactive
5330439B14Rik (GeneID 321015)	1	47.5	34	inactive
5330439B14Rik (GeneID 321015)	2	88.2	81.2	inactive
5330439B14Rik (GeneID 321015)	3	73.4	108	inactive
Ifna16 (GeneID 230398)	1	50.5	56	inactive
Ifna16 (GeneID 230398)	2	85.8	66	inactive
Ifna16 (GeneID 230398)	3	86.3	81.2	inactive
Tmem45b (GeneID 235135)	1	47.4	68.6	inactive
Tmem45b (GeneID 235135)	2	75.9	109	inactive
Tmem45b (GeneID 235135)	3	136	164	active
Ncan (GeneID 13004)	1	125	119	active
Ncan (GeneID 13004)	2	78.6	80.7	inactive
Lmnb1 (GeneID 16906)	1	65.1	75	inactive
Lmnb1 (GeneID 16906)	2	89.3	104	inactive
Zbtb14 (GeneID 22666)	1	129	132	active
Zbtb14 (GeneID 22666)	2	52.6	74.2	inactive
Zbtb14 (GeneID 22666)	3	66.7	89.7	inactive
Gmfg (GeneID 63986)	1	106	69	inactive
Gmfg (GeneID 63986)	2	88	81.2	inactive
Gmfg (GeneID 63986)	3	61.9	50.1	inactive
Foxp4 (GeneID 74123)	1	65.3	90.2	inactive
Foxp4 (GeneID 74123)	2	91.4	47.9	inactive
Foxp4 (GeneID 74123)	3	79.6	99.8	inactive
Cep131 (GeneID 12009)	1	91.4	103	inactive
Cep131 (GeneID 12009)	2	63.9	75.3	inactive
Cep131 (GeneID 12009)	3	45.1	59.1	inactive
Dusp6 (GeneID 67603)	1	57.7	70.9	inactive
Dusp6 (GeneID 67603)	2	75	60.4	inactive
Txndc15 (GeneID 69672)	1	50.4	44.8	inactive
Txndc15 (GeneID 69672)	2	25.6	40.7	inactive
Txndc15 (GeneID 69672)	3	61.7	63.9	inactive
Uts2 (GeneID 24111)	1	44	56.1	inactive
Uts2 (GeneID 24111)	2	82	88	inactive
Uts2 (GeneID 24111)	3	84.8	64.6	inactive
Cabp2 (GeneID 29866)	1	95.5	102	inactive
Cabp2 (GeneID 29866)	2	55.8	59.9	inactive
Hivep1 (GeneID 110521)	1	69.2	78.7	inactive
Hivep1 (GeneID 110521)	2	45.9	35.7	inactive
Hivep1 (GeneID 110521)	3	81.2	83	inactive
Cox8b (GeneID 12869)	1	79.2	60.1	inactive
Cox8b (GeneID 12869)	2	88.7	82.5	inactive
Cox8b (GeneID 12869)	3	58.5	70.1	inactive
Ddx18 (GeneID 66942)	1	62.8	56.6	inactive
Ddx18 (GeneID 66942)	2	75.3	51.4	inactive
Ddx18 (GeneID 66942)	3	81.7	148	inactive

Part of the list above in another layout:
gene knocked down,reagent,"GFP, % of control","viability (ATP), % of control",call
Lmnb1 (GeneID 16906),1,65.1,75,inactive
Lmnb1 (GeneID 16906),2,89.3,104,inactive
Zbtb14 (GeneID 22666),1,129,132,active
Zbtb14 (GeneID 22666),2,52.6,74.2,inactive
Zbtb14 (GeneID 22666),3,66.7,89.7,inactive
